From patent US20030194377A1, “Therapeutic uses of BPI protein products in cystic fibrosis patients” (priority 1996, published 2003)
At least one structure is not confirmed: it was looked up by name or label, or the drawing left a doubt.

Tested on: Pseudomonas aeruginosa strain isolated from a sputum sample from a CF patient
Experiment: Dade MicroScan gram-negative panels supplemented with rBPI21
Format: cell-based

C[C@@H](O)[C@H]1C(=O)N2C(C(=O)O)=C(SCCN=CN)C[C@H]12 [imipenem]
change of antibiotic MIC (in combination with rBPI21 formulated with 0.2% poloxamer 403, versus poloxamer 188 formulation): further decreased the MICs | susceptibility of the strain to combination of rBPI21 and antibiotic (supplemented with 16 μg/mL rBPI21 formulated with 0.2% poloxamer 188): susceptible
